Experimental data taken from publication PMC4663267, “A Novel C-Terminal Domain of RecJ is Critical for Interaction with HerA in Deinococcus radiodurans”.

What was measured:
[1] = target: DrRecJ-core (Deinococcus radiodurans) (UniProt D0EM60); test: EMSA; details: DNA:protein 1:2 to 1:16, much weaker than full length; EMSA: 100 nM DNA, 80 mM NaCl, 20 mM Tris-HCl pH 7.5, 1 mM DTT, 30 C, 10 min, 5% TBE native PAGE; recombinant protein; residues 48-431; protein details: HMT (His6-MBP) tag removed by TEV; label: 5' FAM; single-stranded DNA
[2] = target: DrRecJΔC (Deinococcus radiodurans) (UniProt D0EM60); test: EMSA; details: EMSA: 100 nM DNA, 80 mM NaCl, 20 mM Tris-HCl pH 7.5, 1 mM DTT, 30 C, 10 min, 5% TBE native PAGE, recombinant protein, residues 1-531, protein details: HMT (His6-MBP) tag removed by TEV, label: 5' FAM, single-stranded DNA

Measured: binding result

AAAAAAAAAA [O1 (10 nt ssDNA)]
binds more weakly: [1] | [2]; DNA:protein 1:2 to 1:16, much weaker than full length | [2]; with DrHerA (hexamer:RecJΔC 8:1), no obvious enhancement

Weaker means in comparison with the reference protein, sequence or condition of that experiment. For part of these data: The exact form of at least one protein or probe is not confirmed. For part of these data: At least one verdict was read from the data and is not stated in words by the source.
